Test results published in patent US20130123168A1, “HUMANIN AND HUMANIN-ANALOGUES FOR THE MANAGEMENT OF ATHEROSCLEROSIS” (The Regents of the University of California, priority 2011, published 2013).

Assay: Plasma adipokine and cytokine levels (LINCOplex)
Format: in vivo, mice
Details: high cholesterol diet

HNGF6A: HN analogue, SEQ ID NO:16 MAPRGASCLLLLTGEIDLPVKRRA (listed as Homo sapiens)
levels of adipokines and cytokines between Group 3 and Group 4 (ApoE-deficient mice, plasma): no observed differences | plasma level of t-PA and VEGF (Group 4 vs Group 3, ApoE-deficient mice): unaffected
